Data: paper PMC7362662

Molecular target: ZjbZIP28 (Ziziphus jujuba (Chinese jujube))
Experiment: two-hybrid; yeast two-hybrid (Y2H) by the method of ref. 56; bait and prey not told

binding | Substance
binds | ZjbZIP27 (from UniProt A0A6P4AVP0)
binds | ZjbZIP29 (from UniProt A0A6P3YWS0)

No constants are given. Whether binding was seen depends on the method and setting. Binding can be weak; no strength is given.
